In EP1944295A1, “Non-racemic mixtures of (R)-N-piperidinyl-5-(4-chlorophenyl)1-(2,4-dichlorophenyl)-4,5-dihydro-1H-pyrazole-3-carboxamide and (S)-N-piperidinyl-5-(4-chlorophenyl)-1-(2,4-dichlorophenyl)-4,5-dihydro-1H-pyrazole-3-carboxamide” (Laboratorios del Dr. Esteve S.A., priority 2007, dated 2008):
At least one compound was matched to its structure with a doubt left.

How the values were obtained:
Plasma NEFA assay = assay type: in vivo, female Wistar rats; conditions: obese rats; for effect on plasma NEFA levels compared to the vehicle-treated control group: 10 mg/kg po once daily for 28 days
Experimental: (§1) The experiment was performed on female Wistar rats (originally in the weight range 250-300 g). The rats were housed in pairs in polypropylene cages with solid floors and sawdust bedding at a temperature of 21±4°C and 55±20% humidity. Animals were maintained on a reverse phase light-dark cycle (lights off for 8 h from 09.30-17.30 h) during which time the room was illuminated by red light. Animals had free access to powdered high fat diet (VRF1 plus 20% lard), ground chocolate, ground peanuts and tap water at all times. The three different diets were contained in separate glass feeding jars with aluminum lids with a 3-4 cm hole cut in it to allow access to the food. Animals were housed in pairs for twelve weeks for the induction of obesity. Animals were then housed singly in polypropylene cages with wire grid floors to enable the food intake of each rat to be recorded. Polypropylene trays with cage pads were placed beneath each cage to detect any food spillage. Animals were accustomed to these new conditions (individual housing and the wire-grid floor cages) for at least 14 days before the start of the baseline readings.
Approximately a week before the start of the study, animals were weighed (to the nearest 0.1 g using an electronic top-pan balance) and allocated into […], each containing 9-10 animals. […]
Non-esterified (or free) fatty acids (NEFA) were determined by modification of a commercial clinical analyser assay kit (Wako NEFA C ACS-ACOD method) to a 96-well format. […] After exactly 10 minutes, 150 µl of reagent B was added and the plate incubated for a further 10 minutes after which optical density at 540 nm was determined using a Molecular Devices VERSAmax tunable microplate reader. Optical density readings were then transferred to GraphPad Prism and values for plasma samples extrapolated from a linear regression fit to the standard curve. […]

[1] = Plasma glycerol and triacylglycerol assay; assay type: in vivo, female Wistar rats; conditions: 10 mg/kg po once daily for 28 days, obese rats, vs vehicle
Experimental: as §1, with “Animals were housed in pairs for twelve weeks for the induction of obesity.” left out, “Polypropylene trays with cage pads were placed beneath each cage to detect any food spillage.” left out, “readings. […]” for “readings.”
Plasma triacylglycerol was determined by modification of a discrete assay kit (Sigma Triglyceride determination kit, Cat No. TR0100) to a 96-well format. […]
A 2.5 mg/ml triolein equivalent glycerol standard was obtained from Sigma. […] Optical density readings were then transferred to GraphPad Prism and unknown values extrapolated from a linear regression fit to the standard curve. […]

Q: For `O=C(NN1CCCCC1)C1=NN(c2ccc(Cl)cc2Cl)[C@@H](c2ccc(Cl)cc2)C1` [Compound A, (R)-N-piperidinyl-5-(4-chlorophenyl)-1-(2,4-dichlorophenyl)-4,5-dihydro-1H-pyrazole-3-carboxamide], which “effect on plasma NEFA levels compared to the vehicle-treated control group” value (Plasma NEFA assay) is on record?
A: neither dose of this compound had any effect

Q: What about the “decrease of plasma NEFA levels compared to the vehicle-treated control group” value (Plasma NEFA assay; 30 mg/kg po once daily for 28 days) of the same compound?
A: neither dose of this compound had any effect

Q: With `O=C(NN1CCCCC1)C1=NN(c2ccc(Cl)cc2Cl)[C@H](c2ccc(Cl)cc2)C1` [Compound B, (S)-N-piperidinyl-5-(4-chlorophenyl)-1-(2,4-dichlorophenyl)-4,5-dihydro-1H-pyrazole-3-carboxamide] as the compound, how does the “effect on plasma NEFA levels compared to the vehicle-treated control group” value (Plasma NEFA assay) read?
A: without effect

Q: And the “effect on plasma glycerol levels” value [1]?
A: without effect

Q: What about the “effect on plasma triacylglycerol concentrations” value [1] of the same compound?
A: without effect
